Reference: PubChem BioAssay AID743454 (Peter MacCallum Cancer Centre, 2014)
This is an unselected part of about 18,000 reagents tested. 450 of them (2.5%) count as active. 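Single biological run; no consistent viability z cut-off exists, so the class columns, not z-scores, define the calls.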

Test: 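Search for knock-downs that restore vorinostat killing in resistant colon cancer cells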 (primary screen)
Cell system: human HCT116-VR colon cancer cells, selected for vorinostat resistance
Reagents: siRNA pool against human genes, 40 nM siRNA pool
Duration: vorinostat for 24 h, read-out about 72 h after transfection
Challenge: vorinostat at 2.5 µM final
Read-out: 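Two measures, CellTiter-Fluor viability and luminescent caspase 3/7 activity, each as fold change against same-plate mock wells, mean of duplicates, then screen-wide robust z-score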
Direction: viability robust z-score: higher = more viable cells than screen typical; caspase robust z-score: higher = more caspase 3/7 activity than screen typical
Call rule: 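Hits are knock-downs in viability class RV1/RV2 or caspase class CA1/CA2, excluding ones that killed cells in the no-drug cell-count arm; hits then retested with single siRNAs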

For ARRDC5, what was measured?
viability hit class: no change; caspase hit class: no change; viability robust z-score: 1.2; caspase robust z-score: 0.56; call: inactive

With ADAM7, what does the deposit list?
viability hit class: no change; caspase hit class: no change; viability robust z-score: 0.47; caspase robust z-score: -0.8; call: inactive

For SHCBP1L, how do the results read?
viability hit class: no change; caspase hit class: no change; viability robust z-score: -0.12; caspase robust z-score: -0.56; call: inactive

Which result is listed for KCNJ14?
viability hit class: no change; caspase hit class: no change; viability robust z-score: 0.22; caspase robust z-score: -0.68; call: inactive

What did the screen give for BOD1?
viability hit class: no change; caspase hit class: no change; viability robust z-score: -1.26; caspase robust z-score: -0.95; call: inactive

What is on record for RPS6KB2?
viability hit class: no change; caspase hit class: no change; viability robust z-score: -0.68; caspase robust z-score: 0.32; call: inactive

For BAGE3, what does the deposit list?
viability hit class: no change; caspase hit class: no change; viability robust z-score: -1.57; caspase robust z-score: 0.98; call: inactive

How did the screen score GPATCH3?
viability hit class: no change; caspase hit class: no change; viability robust z-score: -1.27; caspase robust z-score: 1.08; call: inactive

What did the screen give for APOL6?
viability hit class: no change; caspase hit class: no change; viability robust z-score: 2.21; caspase robust z-score: -0.45; call: inactive

For FH, what was measured?
viability hit class: no change; caspase hit class: no change; viability robust z-score: 1.44; caspase robust z-score: -0.62; call: inactive

With NIPAL3, what was measured?
viability hit class: no change; caspase hit class: no change; viability robust z-score: 0.16; caspase robust z-score: -0.9; call: inactive

For NIT1, how do the results read?
viability hit class: no change; caspase hit class: no change; viability robust z-score: -0.93; caspase robust z-score: -0.88; call: inactive

With TSLP, what does the deposit list?
viability hit class: no change; caspase hit class: no change; viability robust z-score: 0.55; caspase robust z-score: -0.45; call: inactive

For CRYBG1, how do the results read?
viability hit class: no change; caspase hit class: no change; viability robust z-score: 0.94; caspase robust z-score: 0.97; call: inactive

What did the screen give for MMP26?
viability hit class: no change; caspase hit class: no change; viability robust z-score: -0.05; caspase robust z-score: 0.1; call: inactive

What did the screen give for NUDT8?
viability hit class: no change; caspase hit class: no change; viability robust z-score: -0.5; caspase robust z-score: -0.84; call: inactive

How did the screen score OR6T1?
viability hit class: no change; caspase hit class: CA2 (caspase activation); viability robust z-score: -0.52; caspase robust z-score: 5.46; call: active

With ZNF430, what was measured?
viability hit class: no change; caspase hit class: no change; viability robust z-score: 0.08; caspase robust z-score: -0.83; call: inactive

For ETV3, how do the results read?
viability hit class: no change; caspase hit class: no change; viability robust z-score: -2.53; caspase robust z-score: -0.88; call: inactive

With GPRASP1, what was measured?
viability hit class: no change; caspase hit class: no change; viability robust z-score: -0.33; caspase robust z-score: 0.92; call: inactive

How did the screen score GNLY?
viability hit class: no change; caspase hit class: no change; viability robust z-score: -0.36; caspase robust z-score: 2.39; call: inactive

Part of the list above, reformatted.
Gene | viability hit class | caspase hit class | viability robust z-score | caspase robust z-score | call
OR6T1 | no change | CA2 (caspase activation) | -0.52 | 5.46 | active
ZNF430 | no change | no change | 0.08 | -0.83 | inactive
ETV3 | no change | no change | -2.53 | -0.88 | inactive
